Drawing on publication PMC11190991, “Encapsulation of Transketolase into In Vitro-Assembled Protein Nanocompartments Improves Thermal Stability” (ACS Applied Bio Materials, 2024), this text covers binding for 2 molecules.

Results are given in words; binding and its absence hold for the method and conditions named.

The target in experiment [1] is Myxococcus xanthus encapsulin (T = 1 and T = 3 capsid shells) (Myxococcus xanthus) (UniProt Q1D6H4). The experiment in a line: condition: only after disassembly in 6 M GuHCl and 10-fold dilution in reassembly buffer; native gel or EMSA; BN-PAGE of Mx_encap after disassembly in 6 M GuHCl or 0.15 M NaOH pH 13.0 and 10-fold dilution in reassembly buffer; both purified.
Experiment [2] has the same target. The experiment in a line: native gel or EMSA; BN-PAGE of samples disassembled in denaturant: 6 M GuHCl, 8 M urea (20 mM Tris-Cl pH 7.5), 0.15 M HCl pH 1.0 or 0.15 M NaOH pH 13.0; both purified.
Experiment [3] deals with Thermotoga maritima encapsulin (T = 1 capsid shell) (Thermotoga maritima) (UniProt Q9WZP2). Put plainly: SEC; in vitro loading during reassembly (10 μM encapsulin monomer, cargo at stated molar ratio), SEC on Superose 6 to remove non-encapsulated cargo, co-eluted cargo seen by SDS-PAGE and quantified by densitometry against standard curves; both purified.

As to “Myxococcus xanthus encapsulin (T = 1 and T = 3 capsid shells) (from UniProt Q1D6H4 1-287)”, the values for the binding result in experiment [1] and in experiment [2] were “no binding” and “no binding (condition: in 8 M urea)”, respectively.

B1: E. coli transketolase without cargo loading peptide (enzyme, UniProt P27302 1-663)
chain: MSSRKELANAIRALSMDAVQKAKSGHPGAPMGMADIAEVLWRDFLKHNPQNPSWADRDRFVLSNGHGSMLIYSLLHLTGYDLPMEELKNFRQLHSKTPGHPEVGYTAGVETTTGPLGQGIANAVGMAIAEKTLAAQFNRPGHDIVDHYTYAFMGDGCMMEGISHEVCSLAGTLKLGKLIAFYDDNGISIDGHVEGWFTDDTAMRFEAYGWHVIRDIDGHDAASIKRAVEEARAVTDKPSLLMCKTIIGFGSPNKAGTHDSHGAPLGDAEIALTREQLGWKYAPFEIPSEIYAQWDAKEAGQAKESAWNEKFAAYAKAYPQEAAEFTRRMKGEMPSDFDAKAKEFIAKLQANPAKIASRKASQNAIEAFGPLLPEFLGGSADLAPSNLTLWSGSKAINEDAAGNYIHYGVREFGMTAIANGISLHGGFLPYTSTFLMFVEYARNAVRMAALMKQRQVMVYTHDSIGLGEDGPTHQPVEQVASLRVTPNMSTWRPCDQVESAVAWKYGVERQDGPTALILSRQNLAQQERTEEQLANIARGGYVLKDCAGQPELIFIATGSEVELAVAAYEKLTAEGVKARVVSMPSTDAFDKQDAAYRESVLPKAVTARVAVEAGIADYWYKYVGLNGAIVGMTTFGESAPAELLFEEFGFTVDNVVAKAKELL
As to B1, in experiment [3], the binding entry is on record as “no binding (tested: 1:1 ratio of TK to capsid monomer)”.
